For the assay, the target named is Flag-H protein of CDV 851 strain (canine distemper virus, strain 851). As to the kind of experiment: co-IP.

Results are given in words; binding and its absence hold for the method and conditions named. Binding seen in cells or lysates may run through a third protein. Binding can be weak; no strength is given.

B1: dogSLAM receptor (receptor, UniProt Q95MM9 27-342)
chain: ESLMNCPEVPGKLGSSLQLSLASEGISKRMNKSIHILVTRAESPGNSIKKKIVSLDLPEGGSPRYLENGYKFHLENLTLRILESRRENEGWYFMTLEENFSVQHFCLQLKLYEQVSTPEIKVLNWTQENGNCSMMLACEVEKGDNVVYSWSEKLGIDPLIPANSSHLLHLSLGPQHVNNVYVCTVSNPVSNRSWSFNPWSKCRPESSVPRQWRLYAGLFLGGIVGVILIFEVVLLLLRRRGKTNHYKPTKEEKSLTIYAQVQKSGSTQKKPDPLPAEDPCTTIYVAATEPVPEPAPEPVQEPHSITVYASVTFPES
In the case of B1, the binding entry is “binds”.
